# Measured values as given in article PMC4022514, “The C-Terminal Domain from S. cerevisiae Pat1 Displays Two Conserved Regions Involved in Decapping Factor Recruitment” (PLoS ONE, 2014).
# Results are given in words; binding and its absence hold for the method and conditions named. Some binding calls cover weakened binding; strength is not graded here. For some of these results: Sequences can lack the tags named with a protein.
# T1: Scd6 (two-hybrid fusion) (S. cerevisiae, UniProt P45978 1-349)
# T1 construct: Scd6, S. cerevisiae; source: yeast two-hybrid fusion
# T1 sequence (looked up): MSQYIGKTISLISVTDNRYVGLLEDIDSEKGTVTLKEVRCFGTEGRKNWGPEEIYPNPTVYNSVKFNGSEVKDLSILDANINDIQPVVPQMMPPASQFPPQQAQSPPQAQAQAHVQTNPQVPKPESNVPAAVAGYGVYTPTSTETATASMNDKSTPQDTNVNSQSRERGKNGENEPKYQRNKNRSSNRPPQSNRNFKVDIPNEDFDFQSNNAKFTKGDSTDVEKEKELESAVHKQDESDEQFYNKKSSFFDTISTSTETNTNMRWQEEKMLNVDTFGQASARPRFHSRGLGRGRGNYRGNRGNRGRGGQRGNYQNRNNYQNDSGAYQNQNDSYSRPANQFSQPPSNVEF
# T2: Edc3 (two-hybrid fusion to the DNA binding domain) (S. cerevisiae) (UniProt P39998)
# T2 sequence: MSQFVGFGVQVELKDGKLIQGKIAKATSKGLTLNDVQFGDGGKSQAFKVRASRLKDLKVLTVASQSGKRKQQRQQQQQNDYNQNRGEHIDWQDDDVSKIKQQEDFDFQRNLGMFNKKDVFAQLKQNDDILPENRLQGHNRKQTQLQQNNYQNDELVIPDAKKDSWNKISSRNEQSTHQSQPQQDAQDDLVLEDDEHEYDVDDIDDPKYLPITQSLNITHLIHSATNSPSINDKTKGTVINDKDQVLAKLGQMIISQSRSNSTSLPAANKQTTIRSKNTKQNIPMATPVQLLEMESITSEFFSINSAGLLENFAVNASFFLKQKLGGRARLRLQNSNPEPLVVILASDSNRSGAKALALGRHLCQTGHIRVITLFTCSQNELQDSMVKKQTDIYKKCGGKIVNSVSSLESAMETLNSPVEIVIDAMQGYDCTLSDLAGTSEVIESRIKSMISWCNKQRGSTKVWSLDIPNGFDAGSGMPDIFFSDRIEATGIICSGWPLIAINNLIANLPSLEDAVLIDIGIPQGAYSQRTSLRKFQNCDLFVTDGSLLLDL
# How the values were obtained:
# Scd6 (two-hybrid fusion) = biological target: T1, Scd6 (two-hybrid fusion); experiment: two-hybrid; yeast strain MAV203 (wild type for EDC3); β-galactosidase activity by Beta-Glo; Pat1 fused to Gal4AD
# [1] = biological target: T2, Edc3 (two-hybrid fusion to the DNA binding domain) (S. cerevisiae); experiment: as above
# [2] = biological target: S. cerevisiae Pat1 C-terminal domain (ScPat1C, residues 473-796) (S. cerevisiae) (UniProt P25644); experiment: SEC-MALS; size exclusion chromatography coupled online to a triple detection array (MALLS); protein at 2 mg/mL; both purified
# [3] = biological target: S. cerevisiae Pat1 C-terminal domain (ScPat1C, residues 473-796) (S. cerevisiae) (UniProt P25644); experiment: SAXS; small angle X-ray scattering at 5.4 and 11.2 mg/mL ScPat1C; experimental curve compared with curves calculated from the monomer and from the crystal dimer; both purified
binder,measurement,setting,value
"full-length ScPat1 (two-hybrid fusion to Gal4AD) (natural protein, S. cerevisiae, UniProt P25644 1-796, looked up, Pat1, S. cerevisiae, full-length; pBS2374 is named only as the template for the Gal4AD-Pat1ΔC68 plasmid pBS4907; also called wild type ScPat1; full-length Pat1 protein; source: yeast two-hybrid fusion) MSFFGLENSGNARDGPLDFEESYKGYGEHELEENDYLNDETFGDNVQVGTDFDFGNPHSSGSSGNAIGGNGVGATARSYVAATAEGISGPRTDGTAAAGPLDLKPMESLWSTAPPPAMAPSPQSTMAPAPAPQQMAPLQPILSMQDLERQQRQMQQQFMNFHAMGHPQGLPQGPPQQQFPMQPASGQPGPSQFAPPPPPPGVNVNMNQMPMGPVQVPVQASPSPIGMSNTPSPGPVVGATKMPLQSGRRSKRDLSPEEQRRLQIRHAKVEKILKYSGLMTPRDKDFITRYQLSQIVTEDPYNEDFYFQVYKIIQRGGITSESNKGLIARAYLEHSGHRLGGRYKRTDIALQRMQSQVEKAVTVAKERPSKLKDQQAAAGNSSQDNKQANTVLGKISSTLNSKNPRRQLQIPRQQPSDPDALKDVTDSLTNVDLASSGSSSTGSSAAAVASKQRRRSSYAFNNGNGATNLNKSGGKKFILELIETVYEEILDLEANLRNGQQTDSTAMWEALHIDDSSYDVNPFISMLSFDKGIKIMPRIFNFLDKQQKLKILQKIFNELSHLQIIILSSYKTTPKPTLTQLKKVDLFQMIILKIIVSFLSNNSNFIEIMGLLLQLIRNNNVSFLTTSKIGLNLITILISRAALIKQDSSRSNILSSPEISTWNEIYDKLFTSLESKIQLIFPPREYNDHIMRLQNDKFMDEAYIWQFLASLALSGKLNHQRIIIDEVRDEIFATINEAETLQKKEKELSVLPQRSQELDTELKSIIYNKEKLYQDLNLFLNVMGLVYRDGEISELK",binding,Scd6 (two-hybrid fusion),binds
same,binding,[1],binds
"S. cerevisiae Pat1 C-terminal domain (ScPat1C, residues 473-796) (domain or fragment, UniProt P25644 473-796) GGKKFILELIETVYEEILDLEANLRNGQQTDSTAMWEALHIDDSSYDVNPFISMLSFDKGIKIMPRIFNFLDKQQKLKILQKIFNELSHLQIIILSSYKTTPKPTLTQLKKVDLFQMIILKIIVSFLSNNSNFIEIMGLLLQLIRNNNVSFLTTSKIGLNLITILISRAALIKQDSSRSNILSSPEISTWNEIYDKLFTSLESKIQLIFPPREYNDHIMRLQNDKFMDEAYIWQFLASLALSGKLNHQRIIIDEVRDEIFATINEAETLQKKEKELSVLPQRSQELDTELKSIIYNKEKLYQDLNLFLNVMGLVYRDGEISELK",binding,[2],no binding (tested: 2 mg/mL)
same,binding,[3],no binding (tested: 5.4 and 11.2 mg/mL)
